Values of other authors in US20070244184A1, “GLYCOSIDASE INHIBITORS AND METHODS OF SYNTHESIZING SAME” (SIMON FRASER UNIVERSITY, priority 2006, published 2007).
At least one structure is not confirmed: it was looked up by name or label, or the drawing left a doubt.

Conditions: rats, after a carbohydrate meal; cited from earlier work

O=S(=O)([O-])OC(CO)C(O)C[Se+]1CC(O)C(O)C1CO (stereo not shown) [blintol]
control of blood glucose levels: very effective in controlling blood glucose levels
